The source of these data is patent publication US6783947B1, “Protecting groups for biological labeling” (Dade Behring Marburg GmbH, priority 1999, dated 2004).

Where a name gives a salt, the structure may show the parent alone.

The data set can be described thus: LOCI homocysteine assay, two-reagent protocol. The protocol:
A 50 μL mixture of hcy-ABA-sensitizer beads (0.1 mg/ml) and 2 mM TCEP and 5 mM CABA-phosphate is added to 5 μL hcy serum calibrator in a reaction cuvette, followed by the addition of 100 μL assay buffer. The mixture is incubated for 417 sec. Then, a 50 μL mixture of Ab-coated acceptor beads (0.5 mg/ml) and alkaline phosphatase (1 mg/ml) is added, followed by 45 μL assay buffer. Following incubation for 157 sec, the sample is read as in the three-reagent standard protocol.
A LOCI homocysteine assay is performed by the automated LOCI Tecan instrument. The reagents and serum samples are kept at 4° C. on this instrument, but the assay buffer and reaction cuvettes are kept at 37° C. The assay is performed at 37° C., and the three-reagent protocol is used, as described herein, while the two-reagent assay protocol is also used in subsequent work with CABA-phosphate as an alternate derivatizing reagent.
An enol phosphate derivative of CABA is synthesized. […] Therefore, it has the potential for a two-component assay. In the two-reagent protocol, reagent-1 (R1) is a mixture of hcy labeled sensitizer beads at 50 μg/ml, 2 mM TCEP, and 5 mM CABA-phosphate in assay buffer; Reagent-2 (R-2) is Ab-coated acceptor beads at 0.1 mg/ml mixed with alkaline phosphatase at 1 mg/ml in assay buffer. In this protocol, 50 μl of R1, 5-10 μl of sample and 50 μl of assay buffer are mixed and incubated for 7 min at 37° C. (step 1), then 50 μl of R2 and 100 μl of assay buffer are added. The reaction mixture is incubated further for 3 minutes. The LOCI reading is performed as described above. The standard curve of hcy serum calibrators using CABA-phosphate as derivatizing agent and the two-reagent protocol is determined (not shown). Over 60% signal modulation is obtained using 2% serum sample.
The same three-reagent protocol used with BABA, as well as with CABA-phosphate as derivatizing agent, is used in this correlation study. Similar results are obtained with either BABA or CABA-phosphate as the derivatizing agent using the three-reagent protocol by LOCI as shown in Table 4-a. […]

Regarding `O=C(O)c1ccc(/C(=C/Cl)OP(=O)(O)O)cc1` [CABA-phosphate, 4-(chloroacetyl)benzoate enol-phosphate sodium salt], under “2% serum sample, CABA-phosphate as derivatizing agent”, the “signal modulation, standard curve of hcy serum calibrators” value was “Over 60%”. Besides, under “50 samples (2%)”, the “r value, LOCI vs. HPLC” value is given as 0.960 and the “slope, LOCI vs. HPLC” value came out at 1.239.
